Experimental data from paper PMC10878145.
No constants are given. Whether binding was seen depends on the method and setting. Binding seen in cells or lysates may run through a third protein. Binding calls can cover weak binding; strength is not graded here.

Molecular target: T1, PDK1 (UniProt O15530)
T1 sequence: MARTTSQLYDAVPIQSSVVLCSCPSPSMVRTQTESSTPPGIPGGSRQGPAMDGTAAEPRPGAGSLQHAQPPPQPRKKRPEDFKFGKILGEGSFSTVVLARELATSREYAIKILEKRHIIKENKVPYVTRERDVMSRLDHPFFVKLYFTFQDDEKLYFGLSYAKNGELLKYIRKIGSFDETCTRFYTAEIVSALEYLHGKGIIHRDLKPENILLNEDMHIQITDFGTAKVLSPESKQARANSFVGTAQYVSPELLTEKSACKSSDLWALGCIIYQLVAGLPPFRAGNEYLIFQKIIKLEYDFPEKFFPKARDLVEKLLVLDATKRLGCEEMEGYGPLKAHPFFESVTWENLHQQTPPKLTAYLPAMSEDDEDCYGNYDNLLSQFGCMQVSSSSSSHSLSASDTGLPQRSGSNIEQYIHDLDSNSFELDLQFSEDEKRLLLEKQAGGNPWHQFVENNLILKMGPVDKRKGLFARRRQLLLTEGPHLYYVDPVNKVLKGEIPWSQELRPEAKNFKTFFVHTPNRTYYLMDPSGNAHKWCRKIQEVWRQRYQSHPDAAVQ
Experiment: co-IP; exogenous co-IP of transfected proteins in HEK-293T cells; lysis buffer 150 mM NaCl, 150 mM Tris, 0.4% NP-40, pH 7.4; antibody 4-6 hrs at 4 °C, protein A magnetic beads 2 hrs at 4 °C; immunoblot; some experiments quantitative with UPP1-WT or UPP1-R94A co-overexpressed, one with SC79

binding: binds
Substance: AKT-HA (AKT-FL, wild-type AKT) (human) (enzyme)
